Results are given in words; binding and its absence hold for the method and conditions named. In cells and extracts the contact can be indirect. Some entries that bind do so weakly or less than the wild type.
How the values were obtained:
[1] = biological target: caspase 8 (human (endogenous in MIP101, RKO, MiaPaCa and MCF-7 cells)) (UniProt Q14790); assay: co-IP; resistant RKO/5FU, MIP/5FU and MiaPaca/CPT cells exposed to 100 ng/mL rSPARC before co-IP of Bcl2 and caspase 8 (membrane fraction in Fig. 5D); also rSPARC with anti-SPARC antibodies
[2] = biological target: caspase 8 (human (endogenous in MIP101, RKO, MiaPaCa and MCF-7 cells)) (UniProt Q14790); assay: co-IP; chemotherapy-resistant cells (MIP/5FU, RKO/5FU, RKO/CPT, RKO/CIS, MiaPaca/CPT, MCF-7/CIS); antibodies against caspase 8 and Bcl2; Protein A:Protein G beads, PBS, 4°C
[3] = biological target: caspase 8 (human (endogenous in MIP101, RKO, MiaPaCa and MCF-7 cells)) (UniProt Q14790); assay: condition: only in chemosensitive MIP/ZEO and MIP/SP cells; co-IP; chemosensitive MIP/ZEO and MIP/SP cells; antibodies against caspase 8 and Bcl2
[4] = biological target: caspase 8 (human (endogenous in MIP101, RKO, MiaPaCa and MCF-7 cells)) (UniProt Q14790); assay: condition: only cells incubated with antibodies blocking the N-terminus of caspase 8 (1.5–3 µg); co-IP; chemotherapy-resistant cells incubated with antibodies targeting the N-terminus (1.5–3 µg) or the C-terminus of caspase 8 before co-IP of Bcl2 and caspase 8

Protein sequences, listed by entry. Tags and fused reporters are not part of them.
UniProt Q14790: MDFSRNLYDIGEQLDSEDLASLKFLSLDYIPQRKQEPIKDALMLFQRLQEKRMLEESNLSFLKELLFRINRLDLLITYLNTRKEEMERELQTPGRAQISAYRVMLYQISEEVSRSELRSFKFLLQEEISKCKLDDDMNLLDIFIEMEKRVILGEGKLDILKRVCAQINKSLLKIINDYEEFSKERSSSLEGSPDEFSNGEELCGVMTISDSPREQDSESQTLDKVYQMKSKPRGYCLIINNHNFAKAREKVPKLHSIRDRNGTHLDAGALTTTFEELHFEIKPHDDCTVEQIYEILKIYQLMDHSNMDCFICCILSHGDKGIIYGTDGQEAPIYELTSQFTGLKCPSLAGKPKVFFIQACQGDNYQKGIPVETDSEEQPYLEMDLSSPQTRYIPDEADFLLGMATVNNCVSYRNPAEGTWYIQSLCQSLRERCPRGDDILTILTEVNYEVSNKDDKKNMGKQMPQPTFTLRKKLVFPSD
UniProt P10415: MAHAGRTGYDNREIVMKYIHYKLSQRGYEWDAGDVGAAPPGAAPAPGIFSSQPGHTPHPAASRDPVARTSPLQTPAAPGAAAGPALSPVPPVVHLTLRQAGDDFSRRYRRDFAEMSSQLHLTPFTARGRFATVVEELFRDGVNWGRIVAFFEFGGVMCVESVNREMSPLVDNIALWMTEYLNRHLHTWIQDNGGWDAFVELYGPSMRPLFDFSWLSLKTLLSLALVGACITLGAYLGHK

binding [1]: binds
binding [2]: binds
binding [3]: no binding
binding [4]: no binding
Substance: Bcl2 (from UniProt P10415 1-239)
